Measurements as given in the supplement of paper PMC10331698.
± gives the standard deviation of the averaged measurements. Small differences around the control level are noise.

Tests used:
Experiment in all cases: level (log10 ratio to DMSO vehicle control); higher = higher biomarker level / cell amount than vehicle control
[1] = compound: C=C(C)C(=O)OCCC(F)(F)C(F)(F)C(F)(F)C(F)(F)C(F)(F)C(F)(F)C(F)(F)C(F)(F)F [8:2 Fluorotelomer methacrylate]; conditions: in DMSO
Description: (§1)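 BioMAP Diversity Plus panel of 12 human primary cell co-culture systems (3C, 4H, LPS, SAg, BT, BF4T, BE3C, CASM3C, HDF3CGF, KF3CT, MyoF, Mphg). Compounds were added 1 h before stimulation and left for 24 h (MyoF 48 h; BT 72 h for soluble read-outs or 6 d for IgG). Biomarkers were read by ELISA, cytotoxicity by SRB, PBMC viability and proliferation by Alamar Blue. Each well value was divided by the mean of 8 DMSO control wells on the same plate and log10 transformed; duplicate blinded samples were tested at 4 concentrations.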

[2] = compound: O=C(O)CCC(F)(F)C(F)(F)C(F)(F)C(F)(F)C(F)(F)F [2H,2H,3H,3H-Perfluorooctanoic acid]; conditions: 2200 nM; in DMSO
Description: as §1

[3] = compound: O=S(=O)(O)C(F)(F)C(F)(F)OC(F)(F)C(F)(F)F [Perfluoro(2-ethoxyethane)sulfonic acid]; conditions: 2200 nM; in DMSO
Description: as §1

[4] = compound: O=C(O)C(F)(F)C(F)(F)C(F)(F)C(F)(F)C(F)(F)C(F)(F)C(F)(F)C(F)(F)Cl [9-Chloro-perfluorononanoic acid]; conditions: in DMSO
Description: as §1

[5] = compound: OCCC(F)(F)C(F)(F)C(F)(F)C(F)(F)F [4:2 Fluorotelomer alcohol]; conditions: 2200 nM; in DMSO
Description: as §1

Perfluoropinacol = compound: OC(C(F)(F)F)(C(F)(F)F)C(O)(C(F)(F)F)C(F)(F)F [Perfluoropinacol]; conditions: in DMSO
Description: as §1

[6] = compound: C=C(C)C(=O)OCCC(F)(F)C(F)(F)C(F)(F)C(F)(F)C(F)(C(F)(F)F)C(F)(F)F [(Perfluoro-5-methylhexyl)ethyl 2-methylprop-2-enoate]; conditions: in DMSO
Description: as §1

Nonafluoropentanamide = compound: NC(=O)C(F)(F)C(F)(F)C(F)(F)C(F)(F)F [Nonafluoropentanamide]; conditions: 2200 nM; in DMSO
Description: as §1

Octafluoroadipamide = compound: NC(=O)C(F)(F)C(F)(F)C(F)(F)C(F)(F)C(N)=O [Octafluoroadipamide]; conditions: 2200 nM; in DMSO
Description: as §1

[7] = compound: O=S(=O)(O)CCC(F)(F)C(F)(F)C(F)(F)C(F)(F)C(F)(F)C(F)(F)F [6:2 Fluorotelomer sulfonic acid]; conditions: in DMSO
Description: as §1

[8] = compound: FC(F)(F)C(F)(F)C(F)(F)C(F)(F)C(F)(F)CCI [1-Iodo-1H,1H,2H,2H-perfluoroheptane]; conditions: 2200 nM; in DMSO
Description: as §1

Tetrafluorosuccinic acid = compound: O=C(O)C(F)(F)C(F)(F)C(=O)O [Tetrafluorosuccinic acid]; conditions: 2200 nM; in DMSO
Description: as §1

[9] = compound: NS(=O)(=O)C(F)(F)C(F)(F)C(F)(F)C(F)(F)C(F)(F)C(F)(F)F [Perfluorohexanesulfonamide]; conditions: 2200 nM; in DMSO
Description: as §1

[10] = compound: COC(=O)CCC(F)(F)C(F)(F)C(F)(F)C(F)(F)F [Methyl 2H,2H,3H,3H-perfluoroheptanoate]; conditions: 2200 nM; in DMSO
Description: as §1

Test System	level (log10) ([1]; 740 nM)	level (log10) ([1]; 2200 nM)	level (log10) [2]	level (log10) [3]	level (log10) ([4]; 2200 nM)	level (log10) ([4]; 6700 nM)	level (log10) ([4]; 20000 nM)	level (log10) [5]	level (log10) (Perfluoropinacol; 2200 nM)	level (log10) (Perfluoropinacol; 6700 nM)	level (log10) (Perfluoropinacol; 20000 nM)	level (log10) ([6]; 740 nM)	level (log10) ([6]; 2200 nM)	level (log10) ([6]; 6700 nM)	level (log10) ([6]; 20000 nM)	level (log10) (Nonafluoropentanamide)	level (log10) (Octafluoroadipamide)	level (log10) ([7]; 2200 nM)	level (log10) ([7]; 6700 nM)	level (log10) ([7]; 20000 nM)	level (log10) ([7]; 60000 nM)	level (log10) [8]	level (log10) (Tetrafluorosuccinic acid)	level (log10) [9]	level (log10) [10]
lMphg:CD40	-0.0195 ± 0.03	-0.0115 ± 0.00071	-0.005 ± 0.016	-0.002 ± 0.0014	-0.02 ± 0.0014	-0.0165 ± 0.0064	-0.0155 ± 0.005	0.0065 ± 0.0078	-0.0085 ± 0.046	-0.0265 ± 0.019	-0.202 ± 0.03	0.0275 ± 0.023	0.0145 ± 0.0035	0.0035 ± 0.011	-0.0085 ± 0.0078	0.0195 ± 0.042	0.003 ± 0.014	-0.011 ± 0.011	-0.017 ± 0.011	-0.022 ± 0.028	-0.05 ± 0.033	0.005 ± 0.04	-0.015 ± 0.0085	0.012 ± 0.0071	-0.0155 ± 0.00071
KF3CT:PAI-I	0.001 ± 0.033	-0.0065 ± 0.016	-0.0055 ± 0.016	-0.004 ± 0.011	-0.001 ± 0.024	-0.01 ± 0.0057	-0.101 ± 0.0078	-0.0595 ± 0.098	0 ± 0.0057	0.001 ± 0.0042	-0.0435 ± 0.012	-0.008 ± 0.024	-0.0185 ± 0.052	-0.035 ± 0.047	-0.05 ± 0.018	0.0045 ± 0.023	-0.0065 ± 0.012	-0.003 ± 0.0014	0.0025 ± 0.0021	-0.012 ± 0.018	-0.0135 ± 0.0092	-0.008 ± 0.011	0.0285 ± 0.012	-0.0085 ± 0.021	-0.0055 ± 0.0064
lMphg:CCL2/MCP-1	0.013 ± 0.041	-0.01 ± 0.023	0 ± 0.0014	-0.008 ± 0.041	0.0045 ± 0.046	0.008 ± 0.047	0.0025 ± 0.015	-0.0215 ± 0.012	0.0235 ± 0.052	0.0265 ± 0.028	-0.148 ± 0.0014	0.001 ± 0.04	0.0035 ± 0.036	0.014 ± 0.0099	0.0175 ± 0.037	0.0005 ± 0.0064	-0.004 ± 0.03	-0.001 ± 0.0071	-0.0195 ± 0.012	-0.005 ± 0.0099	0.027 ± 0.025	-0.019 ± 0.033	0.0055 ± 0.026	-0.0075 ± 0.015	0.0115 ± 0.042
BE3C:CXCL11/I-TAC	0.014 ± 0.082	0.001 ± 0.052	-0.0045 ± 0.047	0.0215 ± 0.00071	0.0185 ± 0.067	0.0515 ± 0.005	-0.161 ± 0.032	0.0155 ± 0.013	-0.001 ± 0.0014	0.0435 ± 0.00071	0.0115 ± 0.021	0.018 ± 0.013	0.0135 ± 0.013	0.005 ± 0.0099	0.0105 ± 0.0092	0.015 ± 0.0099	0.0155 ± 0.016	0.0305 ± 0.036	0.037 ± 0.028	0.0585 ± 0.00071	0.067 ± 0.018	0.01 ± 0.023	-0.0115 ± 0.011	0.0095 ± 0.056	-0.01 ± 0.0042
LPS:CD106/VCAM-1	0.001 ± 0.031	-0.012 ± 0.02	0.016 ± 0.017	0.0275 ± 0.04	-0.002 ± 0.052	-0.008 ± 0.045	0.003 ± 0.037	-0.015 ± 0.0085	0.0085 ± 0.021	0.0045 ± 0.013	-0.0825 ± 0.015	0.0025 ± 0.035	0.0305 ± 0.026	0.0045 ± 0.016	-0.003 ± 0.035	-0.0095 ± 0.0064	-0.0165 ± 0.013	0.0115 ± 0.073	-0.0055 ± 0.067	-0.0005 ± 0.074	0.0115 ± 0.042	-0.0005 ± 0.0092	-0.0105 ± 0.0064	-0.0345 ± 0.04	-0.016 ± 0.027
BF4T:CD106/VCAM-1	-0.018 ± 0.025	0.0025 ± 0.015	0.036 ± 0.073	0.037 ± 0.027	-0.047 ± 0.071	-0.0485 ± 0.005	-0.141 ± 0.011	-0.0315 ± 0.12	-0.001 ± 0.047	-0.0455 ± 0.0021	-0.096	-0.009 ± 0.072	0.0175 ± 0.037	-0.012 ± 0.02	0.0325 ± 0.036	-0.0055 ± 0.074	0.013 ± 0.079	0.0175 ± 0.071	-0.0125 ± 0.04	-0.0315 ± 0.0035	-0.022 ± 0.057	0.0015 ± 0.043	-0.0005 ± 0.011	0.009 ± 0.042	0.0005 ± 0.013
HDF3CGF:CD54/ICAM-1	-0.0105 ± 0.04	0.001 ± 0.021	0.0065 ± 0.012	0.006 ± 0.023	-0.036 ± 0.021	-0.077 ± 0.017	-0.112 ± 0.014	0.004 ± 0.0099	-0.006 ± 0.011	0.012 ± 0.011	0.005 ± 0.018	-0.003	0.001 ± 0.0099	0.0005 ± 0.016	-0.0045 ± 0.026	-0.0085 ± 0.00071	0.0165 ± 0.023	-0.001 ± 0.0099	-0.0085 ± 0.011	-0.007 ± 0.011	-0.029 ± 0.014	0.0005 ± 0.0064	-0.011 ± 0.0042	-0.001 ± 0.0028	-0.008 ± 0.0099
CASM3C:CXCL8/IL-8	0.0015 ± 0.018	-0.005 ± 0.024	-0.003 ± 0.028	0.009 ± 0.0085	-0.0155 ± 0.0064	0.0045 ± 0.00071	0.0175 ± 0.016	0.0085 ± 0.022	-0.0105 ± 0.0078	0.004 ± 0.011	0.029	0.0115 ± 0.019	0.002 ± 0.016	0.005 ± 0.037	0.019 ± 0.028	-0.0145 ± 0.0078	-0.008 ± 0.037	0.004 ± 0.0085	0.007 ± 0.0042	-0.016 ± 0.011	0.0185 ± 0.019	0.001 ± 0.0085	-0.005 ± 0.011	-0.0175 ± 0.018	0.0025 ± 0.022
3C:CD106/VCAM-1	-0.0055 ± 0.0064	-0.0175 ± 0.0078	-0.0035 ± 0.029	0.013 ± 0.014	0.015 ± 0.0014	-0.005 ± 0.0014	-0.001 ± 0.021	0.015 ± 0.0099	0.004 ± 0.0057	-0.006 ± 0.02	-0.0385 ± 0.018	-0.013	-0.008 ± 0.0028	-0.032 ± 0.0099	-0.012 ± 0.0085	-0.0135 ± 0.023	-0.0295 ± 0.063	-0.0105 ± 0.0064	-0.019 ± 0.0071	-0.035	-0.014 ± 0.013	-0.0055 ± 0.022	-0.0065 ± 0.0092	0.003 ± 0.016	-0.03 ± 0.011
MyoF:alpha-SM Actin	0.0075 ± 0.13	0.024 ± 0.073	0.0355 ± 0.066	0.025 ± 0.017	-0.0205 ± 0.033	-0.009 ± 0.028	-0.022 ± 0.013	-0.0015 ± 0.011	-0.014 ± 0.023	-0.004 ± 0.0028	-0.14 ± 0.035	0.0125 ± 0.005	-0.012 ± 0.02	-0.018 ± 0.037	-0.0255 ± 0.04	0.0265 ± 0.029	0.0015 ± 0.08	-0.0205 ± 0.033	0.016 ± 0.018	0.001 ± 0.021	-0.02 ± 0.082	0.005 ± 0.038	0.019 ± 0.03	0.013 ± 0.048	-0.0195 ± 0.011
